Percent effect of library compounds

T. brucei: 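Whole-parasite assay of Trypanosoma brucei over 72 hours; the read-out is not stated. Compounds at 30 µM. The record gives no direction; compounds that gave an IC50 in retests scored well above the rest, so higher reads as stronger inhibition. Values scatter widely below zero; nearly all retest evidence comes from the higher of the two concentrations used. About 64,000 compounds were tested under these conditions; 1.5% (about 940) showed 50% or more at least once.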
Toxoplasma: 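Assay of Toxoplasma gondii numbers, read through their beta-galactosidase reporter with a colour substrate. Compounds at 10 µM. Higher reads as fewer parasites (inferred from which compounds were picked for retests). Of about 67,000 compounds tested this way, about 260 (0.38%) reached 50% or more in at least one test.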

The filed quantity is “Percent Effect” (%).
The controls that fix the scale are not given in the record; negative values are as filed.
The compounds are a random part of those screened.
A dash means the value is not listed here; it may have been measured.

compound,T. brucei,Toxoplasma
Cc1cc(C(F)(F)F)nn1CC(C)C(=O)Nc1cccnc1 (stereo not drawn),-4.531%,7.879%
O=C(NCc1cnn(-c2ccc(F)cc2F)c1)C1CCCO1 (stereo not drawn),6.462%,-7.04%
[H][C@]12CC[C@]([H])(CN(Cc3cccc(C)n3)C1)N(Cc1c(C)noc1C)C2=O,-18.2%,-3.813%
CC(=O)Nc1ccc(-n2cncn2)c(F)c1,-,5.736%
COc1cccc2c1OCCCN(c1nc(N)nc3c1CCNC3)C2,42.45%,1.644%
COc1ccc(-c2nc(CN3CC(n4nc(C)cc4C)C3)no2)cc1,-26.42%,-5.11%
Cc1ccc(OCCn2cnc3oc(C)c(C(=O)O)c3c2=O)cc1,-118.4%,-39.12%
OCCNc1cc(-c2ccccc2)ncn1,-21.79%,8.044%
O=C(c1nnn(-c2ccc(F)cc2)n1)N1CCC(O)CC1,-25.19%,23.04%
Cc1ccc(S(=O)(=O)Cc2noc([C@@H]3C[C@@H](O)CN3)n2)cc1,-6.201%,0.8494%
CCc1ccc(C2CC(=O)Nc3n[nH]cc32)o1 (stereo not drawn),5.689%,-4.743%
C1CCC(CN2Cc3nnn(CC4CC4)c3C(COCC3CC3)C2)C1.O=C(O)C(F)(F)F (stereo not drawn),-7.314%,-12.29%
COCCNC(=O)NC(C)COc1ccc(F)cc1F (stereo not drawn),-10.89%,17.3%
[H][C@@]12COC[C@]1(COc1ccc(C#N)cn1)CN(Cc1ccc(C)o1)C2,-9.052%,5.03%
O=C(NCCc1nnc2n1CCC2)NC1(c2cccc(F)c2)CC1,-2.523%,-0.1508%
O=C(Cc1ccc(F)cc1)N1CCn2cc(Cn3cncn3)nc2C1,-65.81%,-33.83%
CN1CCc2c(C#N)c(NCc3ccco3)n3cnnc3c2C1,14.76%,0.05028%
Cc1nn(-c2ccccc2)c2c1c(C(F)F)cc(=O)n2CC(=O)O,5.163%,36.97%
CC(C)N(C)CC(=O)NCC(O)c1cc2ccccc2s1 (stereo not drawn),25.23%,1.821%
CS(=O)(=O)NCc1cnc2n1CCN(Cc1cccnc1)CC2.O=C(O)C(F)(F)F.O=C(O)C(F)(F)F,-10.23%,7.249%
CCOc1cc(F)ccc1NC(=O)N(C)Cc1cnn(C)c1,-16.65%,-14.46%
Cc1ccc(N2CCCC(NCC(=O)Nc3cc(C)nn3C)C2)nn1 (stereo not drawn),11.35%,10.75%
CCc1nnc2n1CCN(Cc1csc(-c3ncccn3)n1)C2,-17.44%,2.605%
O=C(O)C(F)(F)F.[H][C@@]12CCN(C3CCCC3)C[C@]1(C(=O)NCc1cnc(C)cn1)CCO2,-73.55%,-22.9%
Cc1csc(C(C#N)C(=O)NCc2ccccc2)n1 (stereo not drawn),-20%,-74.37%
CC(C)N1Cc2cccc(NCC(=O)N(C)C)c2C1,9.64%,0.437%
CCN1CCC2(CCN(Cc3nccs3)CC2)C1=O.O=C(O)C(F)(F)F,-1.473%,6.404%
Cc1cc(CC(=O)NC2CCCN(c3ccccc3Cl)C2=O)n[nH]1 (stereo not drawn),-36.74%,-8.89%
O=C(O)c1cc(-n2cc3c(n2)CCC3)cc(S(=O)(=O)NC2CCCC2)c1,11.22%,4.446%
CNC(=O)c1cn2cc(-c3ccccc3Cl)n(CC3CC3)c(=O)c2n1,-12.99%,-32.06%
CN(C)S(=O)(=O)N1CC[C@]2(C[C@@H](Oc3ncccc3F)CO2)C1.O=C(O)C(F)(F)F,36.95%,3.864%
O=C1CC(c2ccc(F)cc2)c2snc(C(=O)O)c2N1 (stereo not drawn),-24.08%,3.03%
Cc1nn(C)c(N2CCOCC2)c1CNC1CCOc2ccccc21 (stereo not drawn),-29.5%,-
O=C1CN(C(=O)C2CN(c3cccc(F)c3)CCO2)CCN1 (stereo not drawn),-12.92%,4.403%
CCCNC(=O)C(C)Oc1ccccc1 (stereo not drawn),-18.82%,0.4908%
CN1CCCC1CNC(=O)CCOc1ccc(Br)cc1 (stereo not drawn),16.52%,-31.63%
COc1c(C2CCCN2C(=O)c2cc(Cl)c[nH]2)c(C)nn1C (stereo not drawn),25.61%,-3.223%
O=S(=O)(NCCn1ccc(-c2ccncc2)n1)C1CC1,-13.26%,2.092%
O=C(CCc1nc2ccccc2[nH]1)Nc1ccc2c(c1)OCC(=O)N2,-12.36%,17.23%
CC(C)c1cc(C(=O)NCC2CCCN(C(C)C)C2)n(C)n1.Cl (stereo not drawn),-,12.27%
O=C(NCCOc1ccc(F)c(F)c1)NCc1ccncc1,-9.495%,-5.309%
CC(C)(C)C(=O)NCCC(=O)NS(=O)(=O)c1ccc2c(c1)OCCO2,-70.25%,-2.189%
Cc1nc(COC(=O)c2cccc3c2OCCO3)cs1,3.955%,-8.404%
O=C(O)c1ccccc1-c1ccc(CN2CCC(CO)CC2)cn1,-6.853%,-12.17%
O=C(CCc1ccccc1Cl)NS(=O)(=O)c1ccc2c(c1)OCCO2,2.035%,-3.281%
CC(C)CNC[C@H]1O[C@H](Cc2cc(-c3ccccn3)on2)CC[C@@H]1O,2.563%,0.8621%
CC(=O)N1CCCCC1c1nc2c(c(NC3CCCC3)n1)CN(C)CC2 (stereo not drawn),-6.614%,-0.7182%
Cc1ccc(OCC2CCCN(C(=O)CN3CCOCC3)C2)cc1 (stereo not drawn),-50.81%,0%
CN1CCN(c2ccncc2S(=O)(=O)N2CCCCC2)CC1,-31.94%,6.334%
CCN1CC(CN2CCOCC2)Oc2ncccc2C1=O (stereo not drawn),-6.253%,-6.343%

Some entries from above, unchanged:

With OCCNc1cc(-c2ccccc2)ncn1 the screen gave T. brucei: -21.79%; Toxoplasma: 8.044%.
With CN1CCc2c(C#N)c(NCc3ccco3)n3cnnc3c2C1 the screen gave T. brucei: 14.76%; Toxoplasma: 0.05028%.
With O=C1CN(C(=O)C2CN(c3cccc(F)c3)CCO2)CCN1 (stereo not drawn) the screen gave T. brucei: -12.92%; Toxoplasma: 4.403%.

From ChEMBL document CHEMBL3988442, “University of Dundee, Small-Polar-MMV Screening Library” (2021).